Test results from PMC3493068.

T1: FLAG-tagged full-length human MG53 (human) (UniProt Q6ZMU5)
T1 sequence: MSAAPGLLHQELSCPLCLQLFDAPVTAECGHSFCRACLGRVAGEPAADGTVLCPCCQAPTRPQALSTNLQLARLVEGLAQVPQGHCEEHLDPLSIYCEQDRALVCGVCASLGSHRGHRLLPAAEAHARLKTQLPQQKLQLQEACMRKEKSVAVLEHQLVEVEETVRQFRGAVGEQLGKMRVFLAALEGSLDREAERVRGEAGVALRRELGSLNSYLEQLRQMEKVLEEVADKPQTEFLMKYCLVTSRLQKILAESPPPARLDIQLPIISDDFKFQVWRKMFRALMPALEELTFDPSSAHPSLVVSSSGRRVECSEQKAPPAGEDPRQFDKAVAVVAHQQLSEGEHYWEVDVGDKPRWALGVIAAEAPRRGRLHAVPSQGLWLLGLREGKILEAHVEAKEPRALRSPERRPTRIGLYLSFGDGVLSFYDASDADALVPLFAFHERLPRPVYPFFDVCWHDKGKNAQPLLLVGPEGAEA


Columns and labels:
Experiment in all cases: co-IP; COS-7 cells co-transfected with FLAG-MG53 and c-myc-dysferlin constructs, lysed 48 h later in 20 mM Tris-HCl pH 7.5, 150 mM NaCl, 1% NP-40 without CaCl2 and EGTA; IP with anti-FLAG (M2) or anti-c-myc (9E10), immunoblot
[1] = target: T1, FLAG-tagged full-length human MG53 (human)
[2] = target: c-myc-tagged human dysferlin deletion mutant aa 1-1080 (transmembrane domain retained) (human)
[3] = target: c-myc-tagged human dysferlin deletion mutant aa 1-149 (transmembrane domain retained) (human)
[4] = target: c-myc-tagged human dysferlin deletion mutant aa 1-349 (transmembrane domain retained) (human)

binding [1]	binding [2]	binding [3]	binding [4]	Molecule
binds				c-myc-tagged human dysferlin deletion mutant aa 1-149 (transmembrane domain retained) (domain or fragment)
binds				c-myc-tagged human dysferlin deletion mutant aa 1-1080 (transmembrane domain retained) (domain or fragment)

Further lines, the molecule ahead of its results:

Molecule	binding [1]	binding [2]	binding [3]	binding [4]
c-myc-tagged human dysferlin deletion mutant aa 1-349 (transmembrane domain retained) (domain or fragment)	binds			
FLAG-tagged full-length human MG53 (protein, UniProt Q6ZMU5 1-477) MSAAPGLLHQELSCPLCLQLFDAPVTAECGHSFCRACLGRVAGEPAADGTVLCPCCQAPTRPQALSTNLQLARLVEGLAQVPQGHCEEHLDPLSIYCEQDRALVCGVCASLGSHRGHRLLPAAEAHARLKTQLPQQKLQLQEACMRKEKSVAVLEHQLVEVEETVRQFRGAVGEQLGKMRVFLAALEGSLDREAERVRGEAGVALRRELGSLNSYLEQLRQMEKVLEEVADKPQTEFLMKYCLVTSRLQKILAESPPPARLDIQLPIISDDFKFQVWRKMFRALMPALEELTFDPSSAHPSLVVSSSGRRVECSEQKAPPAGEDPRQFDKAVAVVAHQQLSEGEHYWEVDVGDKPRWALGVIAAEAPRRGRLHAVPSQGLWLLGLREGKILEAHVEAKEPRALRSPERRPTRIGLYLSFGDGVLSFYDASDADALVPLFAFHERLPRPVYPFFDVCWHDKGKNAQPLLLVGPEGAEA		binds	binds	binds

No constants are given. Whether binding was seen depends on the method and setting. In cells and extracts the contact can be indirect. A result given as binding can be weak or reduced; the word gives no strength. Where a sequence is shown, tags or fusion partners need not be part of it.
